Laboratory results: PubChem BioAssay AID493014 (National Center for Advancing Translational Sciences (NCATS), 2011)
Some of the results follow. Shown are side measurements of this screen, not its main read-out; they come without a call. The list favours compounds with an active or inconclusive main result. Words in brackets tell the shape of the fitted curve; partial curves, single points and poor fits give uncertain potencies.

Experiment: qHTS Assay to Find Inhibitors of Chronic Active B-Cell Receptor Signaling
Settings: ABC-DLBCL IkBa-CBG/CBR reporter, luminescence ratio (green luciferase fused to IkBa over red control in TMD8 lymphoma cells), 4 h
Summary of the method: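 TMD8 ABC-DLBCL cells carrying doxycycline-inducible green luciferase fused to IkappaBalpha plus unfused red luciferase were exposed to compounds (up to 46 uM) for 4 hrs at 37C. Activity came from the overlap-corrected green/red luminescence ratio.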

[1] = measured here: CBR red luminescence, cell number
[2] = measured here: IkBa-CBG green luminescence

Structure (SMILES)	AC50 [1]	AC50 [2]
Nc1cccc(CCc2nc3cc4ccccc4cc3[nH]2)c1	23.1 µM [falling, partial curve]	20.6 µM [falling, single point]
CN(C)S(=O)(=O)Oc1ccsc1C(=O)Nc1ccc(Cl)c(Cl)c1	35.5 µM [falling, single point]	
Cc1cc(C(=O)NCCCN2CCCC2=O)no1	1.64 µM [rising, partial curve]	
Cc1cc(C)cc(NC(=O)C2CCN(c3cnccn3)CC2)c1	17.8 µM [falling, partial curve, poor fit]	
COCCOC(=O)c1[nH]c2c(c1C)C(=O)CC(c1ccccc1)C2 (configuration not stated)	3.26 µM [rising, full curve]	2.91 µM [falling, full curve]
COc1ccc(CNC(=O)Cn2c(=O)n3nc(-c4cccc(F)c4)nc3c3ccccc32)cc1OC	35.5 µM [rising, single point]	
c1ccc(-c2cc(-c3nnc4n3N=C(c3ccc5ccccc5c3)CS4)[nH]n2)cc1	2.59 µM [rising, partial curve, poor fit]	2.59 µM [falling, full curve]
Cc1ccc(C)c(-n2nnnc2SCC(=O)Nc2c(C)n(C)n(-c3ccccc3)c2=O)c1	3.66 µM [falling, single point]	
COc1ccc(/C=N/NC(=O)c2cc(-c3ccccc3OC(C)C)nc3ccccc23)cc1CN1CCOCC1	29.1 µM [falling, single point]	
O=C(NNC(=O)c1cccs1)c1ccc(Cl)c([N+](=O)[O-])c1	7.31 µM [falling, partial curve]	
O=C1c2cnc3nc(SCc4ccc(Cl)cc4)nn3c2CC2c3ccccc3CCN12 (configuration not stated)	3.16 µM [rising, partial curve]	
Cc1ccc(-c2nc3cccnc3s2)cc1NS(=O)(=O)c1ccc2c(c1)CCCC2		20.6 µM [falling, single point]
CC(C)=NOc1nc(N(C)C)nc(N2CCOCC2)n1	22.4 µM [rising, single point]	
COc1ccc(NC(=O)COc2cccc3c2CCNC3=O)cc1	25.9 µM [rising, single point]	
Cc1ccc(S(=O)(=O)N(C)C)cc1-n1c(SCC(=O)Nc2ccc(F)cc2Cl)nc2ccccc2c1=O	6.51 µM [rising, full curve, poor fit]	
N#C/C(=C\c1ccccc1[N+](=O)[O-])C(=O)NCc1ccccc1	17.8 µM [falling, single point]	
COc1ccc2c(c1)O/C(=C\c1ccco1)C2=O	15.8 µM [falling, partial curve, poor fit]	
O=C(N/N=C/C(Br)=C/c1ccccc1)NC1CCCCC1		14.1 µM [falling, single point]
CCc1ccc2nc3sc(C(=O)Nc4nnc(CC)s4)c(N)c3cc2c1	11.2 µM [falling, single point]	
CCCN1CCN(C(=O)CCCn2c(C)c3cnn(-c4ccccc4)c(=O)c3c2C)CC1	18.4 µM [falling, single point]	
O=C1CCC/C(=N\NC(=O)c2ccc(NS(=O)(=O)c3ccc(Br)cc3)cc2)C1	23.1 µM [falling, partial curve]	

A second format for two compounds above.
O=C(NNC(=O)c1cccs1)c1ccc(Cl)c([N+](=O)[O-])c1
  AC50 [1]: 7.31 µM [falling, partial curve]
O=C(N/N=C/C(Br)=C/c1ccccc1)NC1CCCCC1
  AC50 [2]: 14.1 µM [falling, single point]

Entries above with an aryl thioether with sulfur outside any ring (3):
Structure (SMILES)	AC50 [1]	AC50 [2]
Cc1ccc(C)c(-n2nnnc2SCC(=O)Nc2c(C)n(C)n(-c3ccccc3)c2=O)c1	3.66 µM [falling, single point]	
O=C1c2cnc3nc(SCc4ccc(Cl)cc4)nn3c2CC2c3ccccc3CCN12 (configuration not stated)	3.16 µM [rising, partial curve]	
Cc1ccc(S(=O)(=O)N(C)C)cc1-n1c(SCC(=O)Nc2ccc(F)cc2Cl)nc2ccccc2c1=O	6.51 µM [rising, full curve, poor fit]	

Next records.

Structure (SMILES)	AC50 [1]	AC50 [2]
Cc1ccc(NC(=O)CNC(=O)c2cccs2)nc1	20.6 µM [falling, partial curve]	
CC1CCc2c(sc(NC(=O)COC(=O)C3CCCO3)c2C#N)C1 (configuration not stated)	15.8 µM [rising, partial curve, poor fit]	
Cc1cccc(N2C(=O)CC(N3CCN(C(=O)c4ccccc4)CC3)C2=O)c1 (configuration not stated)	23.1 µM [rising, partial curve]	
COc1ccc(-n2nnnc2S(=O)(=O)Cc2ccc(C(=O)O)cc2)cc1	5.8 µM [falling, full curve]	6.51 µM [rising, full curve, poor fit]
O=C(/C(C=Nc1ccc(F)cc1)=C(/O)c1ccco1)C(F)(F)F	20.6 µM [falling, single point]	
O=C(N/N=C/c1ccc2c(c1)OCO2)c1ccc(COCC(F)(F)C(F)F)cc1	35.5 µM [rising, single point]	
CC(=O)c1ccc(N2CCN(C(=O)c3cc(-c4ccc5c(c4)OCO5)nc4ccccc34)CC2)cc1	8.2 µM [falling, partial curve, poor fit]	
COc1cc2nc(Nc3ccc(C)c(C)c3)nc(N)c2cc1OC	35.5 µM [falling, single point]	
CC(=O)c1ccc(NC(=S)NNC(=O)NC2CCCCC2)cc1	5.62 µM [falling, partial curve, poor fit]	
O=C(CSc1nnnn1-c1ccc(F)cc1)Nc1ccccc1F	20 µM [falling, single point]	
Cc1ccnc(NC(=S)NC(=O)c2ccco2)c1	11.2 µM [falling, partial curve]	
CCc1nnc(NC(=O)COC(=O)CN2C(=O)c3ccccc3C2=O)s1	1 µM [rising, full curve]	
CCOC(=O)CN1C(=O)/C(=C/c2ccc(Cl)cc2)Oc2ccccc21	5.62 µM [rising, single point]	
Cc1cnc(NC(=O)c2ccc3c(c2)OCCO3)s1	3.26 µM [falling, full curve, poor fit]	
COc1ccc(C2CC(c3ccccc3Br)=NN2c2ccc(S(N)(=O)=O)cc2)cc1 (configuration not stated)		18.4 µM [falling, partial curve, poor fit]
O=c1c2c(nc3c(-c4ccc(Cl)cc4)c[nH]n13)CCC2	10 µM [falling, partial curve]	
O=C(c1ccco1)N1CCC(c2nc3c(nnn3Cc3c(Cl)cccc3Cl)c(=O)[nH]2)CC1	11.2 µM [falling, partial curve, poor fit]	
COc1ccc(S(=O)(=O)Cc2ccc(C(=O)N3CCN(c4cc(Cl)ccc4C)CC3)o2)cc1	4.61 µM [falling, partial curve, poor fit]	
Cc1ccc(/C=C/c2nc3ccccc3n2S(=O)(=O)c2cccc(Cl)c2)cc1	3.55 µM [falling, full curve]	
Cc1cccc(OCCNc2cc(N3CCOCC3)ccc2[N+](=O)[O-])c1	0.366 µM [rising, full curve, poor fit]	
CC(CC(=O)NCc1ccc(Cl)cc1Cl)CC1=NS(=O)(=O)c2ccccc2N1 (configuration not stated)	35.5 µM [falling, single point]	

Structure (SMILES)	AC50 [1]	AC50 [2]
COc1ccc(CCN2CC(C(=O)NCc3nc4ccccc4n3C)CCC2=O)cc1 (configuration not stated)	35.5 µM [falling, single point]	
O=C(COC(=O)C1CC(=O)N(Cc2ccco2)C1)Nc1ccc(F)cc1F (configuration not stated)	29.1 µM [rising, single point]	
COc1ccc(NC(=O)Nc2ccccc2F)cc1	2.31 µM [falling, full curve]	
COCCN1C(=O)/C(=C/c2ccc(OCc3ccc(C(=O)O)cc3)c(OC)c2)SC1=Nc1ccccc1	0.58 µM [falling, partial curve, poor fit]	
Cc1ccnc(NC(=O)C2CC(=O)N(Cc3ccccc3)C2)c1 (configuration not stated)	25.9 µM [falling, partial curve]	
CC(C)NS(=O)(=O)c1ccc(NC(=O)C(C)Oc2ccc(C(=O)c3ccccc3)cc2)cc1 (configuration not stated)	8.2 µM [falling, partial curve, poor fit]	
CCN1CCN(Cc2nnc(-c3ccccc3)o2)CC1	2.24 µM [falling, partial curve]	
O=c1cc(-c2cccc(F)c2)[nH]c2ccccc12		11.6 µM [falling, partial curve]
COc1ccc(C(=O)c2c(C(F)(F)F)oc3c2C(=O)c2ccccc2C3=O)cc1OC	0.146 µM [falling, full curve, poor fit]	
CCCCCCCCCC(=O)NNC(=O)c1c(O)c2ccccc2n(CCC)c1=O	5.62 µM [falling, single point]	
Cc1ccccc1C(=O)NC(=S)Nc1cccc(NC(=O)C(C)C)c1	1 µM [falling, full curve]	
Cc1ccc(C(=O)c2ccc(N3CCN(C)CC3)c([N+](=O)[O-])c2)cc1	29.1 µM [falling, single point]	
CC(=O)N1c2ccc(S(=O)(=O)NCCC(=O)NCCc3ccc(Cl)cc3)cc2CC1C (configuration not stated)	35.5 µM [falling, single point]	
COc1ccc(CCNC(=O)NC23CC4CC(CC(C4)C2)C3)cc1	7.31 µM [rising, partial curve, poor fit]	
c1ccc2oc(-c3csc(N4CCOCC4)n3)cc2c1	1.58 µM [rising, partial curve, poor fit]	
C=CCn1c(SCC(=O)Nc2sccc2C(N)=O)nc2sc(CC)cc2c1=O	14.6 µM [falling, partial curve]	6.51 µM [rising, partial curve, poor fit]
CCCCCCCCCCSc1n[nH]c(N)n1	9.2 µM [rising, partial curve]	
O=C(NCCC1=CCCCC1)C1CCN(S(=O)(=O)c2cnc[nH]2)CC1	29.1 µM [falling, single point]	
CCOC(=O)c1c(NC(=O)c2c(Br)cnn2C)c(C#N)nn1-c1ccccc1	0.447 µM [rising, partial curve, poor fit]	
Cc1[nH]c(=O)c(C#N)c2c1CSC(C)(C)C2	12.6 µM [rising, partial curve]	
